Experimental data as given in patent US20120100152A1.
No constants are given. Whether binding was seen depends on the method and setting. Some results given as binding are weak or reduced against the parent protein; the word gives no strength.

Tests used:
[1] = molecular target: T1, human CD52 (wildtype) (human); assay: flow cytometry, CHO-CD52 cells
T1 sequence (chain, glycosylated (N-linked glycan), GPI-anchored): GQNDTSQTSSPS

[2] = molecular target: T1, human CD52 (wildtype) (human); assay: flow cytometry, CHO-CD52 cells, methods of Example 22 (antibody at 10 ug/ml, FITC goat anti-human secondary) (Example 24)
[3] = molecular target: T1, human CD52 (wildtype) (human); assay: flow cytometry, CD4+ T cells from human PBMC and from huCD52 transgenic mouse spleen, 8-point 1:3 dilution from 100 ug/mL, FITC goat F(ab)2 anti-human Fc gamma secondary (Example 29)
[4] = molecular target: T1, human CD52 (wildtype) (human); assay: ten-colour flow cytometry, human PBMC, Alexa fluor 647-conjugated antibody, gated lymphocyte subsets (Example 7)
[5] = molecular target: T2, affinity purified CD52 from CHO-CD52 cells, mock-treated (glycosylated CD52) (human); assay: western blot of affinity purified CD52 +/- PNGase-F, antibody at 3 µg/ml
T2 sequence (chain, N-linked glycan present; GPI anchor): GQNDTSQTSSPS

[6] = molecular target: T1, human CD52 (wildtype) (human); assay: FACS, CHO cells expressing wild type human CD52, PE-conjugated goat anti-human secondary (Example 4)
[7] = molecular target: T1, human CD52 (wildtype) (human); assay: flow cytometry, human CD4+ T cells and huCD52 transgenic mouse CD4+ T cells
[8] = molecular target: T1, human CD52 (wildtype) (human); assay: flow cytometry, CHO-CD52 cells (FIG. 27B)
[9] = molecular target: T1, human CD52 (wildtype) (human); assay: flow cytometry, CHO-CD52 cells (FIG. 25)
[10] = molecular target: T1, human CD52 (wildtype) (human); assay: flow cytometry, CHO-CD52 cells, antibody at 10 µg/ml
[11] = molecular target: T1, human CD52 (wildtype) (human); assay: flow cytometry, CHO-CD52 cells, antibody at 10 ug/ml, FITC goat anti-human secondary (Example 22)

Measured: binding

B1: chimeric 2C3 antibody (antibody, human IgG1, V domains shown)
VH: EVKLEESGGGLVQPGGSMKLSCVASGFTFNTYWMNWVRQSPEKGLEWVAQIRLKSNNYATHYAESVKGRFTISRDDSKNSVYLQMNNLRAEDTGIYYCTPVDFWGQGTTLTVSS
VL: DIVITQTPLTLSVTIGQPVSISCKSSQSLLYSNGKTYLNWLLQRPGQSPKRLIYLVSKLDSGVPDRFTGSGSGTDFTLKISRVEAEDLGVYYCVQGTHLHTFGAGTKLELK
not listed: [9] | [10] | [11]
binds: all other assays above

B2: humanized antibody 7F11-SFD2/K2 (antibody, human IgG1, V domains shown)
VH: EVQLVESGGGLVQPGGSLRLSCAASGFTFTDYYMSWVRQAPGKGLEWVGFIRNKANGYTTEYNASVKGRFTISRDDSKNSLYLQMNSLKTEDTAVYYCARYIFFDYWGQGTTVTVSS
VL: DIVMTQTPLSLSVTPGQPASISCRSSQSLVHTNGNSYLHWYLQKPGQSPQLLIYMVSNRFSGVPDRFSGSGSGTDFTLKISRVEAEDVGVYYCSQSTHVPFTFGQGTKLEIK
binds: [9] | [10] | [11]
